# Test results published in PubChem BioAssay AID1347426 (Functional Genomics Laboratory (NCATS/FGL), 2020).
# Among all 31,000 sequences or so, about 1,400 (4.5%) were called active.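 The calls were made as follows: active = median seed-adjusted z-score above 1 or below -1; inactive = the rest.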 The list shows a part of the results.
# Test: Novel Modifiers of Survival Motor Neuron (SMN) Protein: Gene Identification via Genome-wide siRNA Screen;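 also: luminescence tracks full-length SMN protein made from the SMN2 reporter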
# Conditions: HEK293T SMN2-luciferase reporter, siRNA knockdown, 72 h; actives lie on both sides
# Method in brief: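 Genome-wide siRNA screen (10418 genes, 3 siRNAs each, 1 pmol per well) by reverse transfection in HEK293T cells stably carrying an SMN2-luciferase reporter; luminescence after 72 hours, normalized to negative-control siRNA, log10-transformed, MAD-scored.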
row,Sequence,median seed-adjusted z-score
1,GCGGGAAUCUUAACUCGGATT against CDH6,inactive: 0
2,AGAUCGUUAUCCUACUGGATT against LINGO1,inactive: -0.443
3,CCACCACUAUGGUUCCCACTT against KCNG4,inactive: 0.666
4,GGAAAGGUUGUAUACGUGATT against SLC6A11,inactive: -0.0369
5,ACAUCGAAACCAACCAUAATT against IDH3G,inactive: -0.426
6,GACGGACAGUGGUAUGGUUTT against KDR,inactive: 0.0728
7,CGAACGAGCUAUCACAGAATT against TFB1M,inactive: 0.172
8,CCGAGGUGCUAGUACGAAATT against GTPBP2,inactive: -0.166
9,GCAACUAUCCCGACAUGCATT against GRIN2D,inactive: -0.135
10,GGAAUAGCUUUGCGAAAAATT against FABP5,inactive: -0.258
11,GCACCGACCCUAGCAUCAUTT against E2F2,inactive: -0.382
12,GUCCGUCGCUAAUUAUGCATT against GAK,inactive: 0.488
13,GCAGCUGAGUGUUCGACUUTT against METTL7A,inactive: 0.278
14,CGAAUGAUAUCAUCAACAUTT against TDRD1,inactive: -0.164
15,GGAUGGAGGUUGUGCAGCUTT against ITPK1,inactive: 0.0575
16,GUACGUGGAUGUGCUCAAATT against APOA1,inactive: -0.239
17,AGUUCCUGAUGUCAACCAATT against CYP46A1,inactive: -0.00752
18,CCUCGGACCUCUCAACAAATT against AAK1,inactive: 0.27
19,CAAGUUAUCUCCUCUGCUATT against FXYD5,inactive: -0.0885
20,GCCCGAUGAGAUCAACAUUTT against PPP1R14A,inactive: 0.0124
21,CCUUCUCUCUGAUUAUUGATT against DLL1,inactive: 0
22,CCUCUGGACACGUAACCUATT against NR2F6,inactive: -0.681

row,Sequence,median seed-adjusted z-score
1,GCACUAUCUCGGAUAAGUATT against SIM1,inactive: -0.0177
2,CAACCUUGACAAUGCAAUUTT against NNT,inactive: 0.336
3,ACUCCUCCGUAUGUUUAUATT against PITX2,inactive: -0.231
4,GGAAUUCGGUGUAUCAGAUTT against IMPDH1,inactive: 0.558
5,GGUGAUCGUGUCUUCCAUATT against DHRS4,inactive: 0.263
6,GGAAAUCAUUCUUCACGUATT against PSMD13,inactive: 0.58
7,AGAUAUUUGUGGACUACGATT against SNRNP35,inactive: 0.172
8,GUGUUCGACUGUAAAUUCATT against REM1,inactive: 0.231
9,GGAUUAUCGACUUCAUAUUTT against NDUFB2,inactive: 0.063
10,GAAAUGCACAGAUGCCUAUTT against LAIR2,inactive: -0.481
11,GCUUGGUAGCAUACAAAGATT against PMM2,inactive: 0.448
12,CAAGAAAGAGGGUAAAGCATT against LIG1,inactive: 0.722
13,GGGUUUUACACUGUCCAAATT against ECEL1,inactive: -0.301
14,GACUCAACAAGGCAGCAUUTT against BPIL1,inactive: 0.261
15,GCGGUUCAGCGAGGAAGAATT against NR2F1,inactive: 0.259
16,UGAUGGUUGUGACAAUUGUTT against SUPT4H1,active: -1.01
17,GGUUAUAAGCUGAGGCAGATT against BCL2L2,inactive: 0
18,CUAUAUCCUUGACACCUUATT against ATP6V1G2,inactive: -0.664
19,CCUCAUAUAUCAUGACCGATT against ZNF607,inactive: 0.857
20,CCCUCCUCGUGGAACCAUATT against NEURL2,active: 1.39
21,AUAUCAUGAUGAACAAGCATT against RHO,inactive: -0.267
22,GGGUGGAGUUAUUCGAAAATT against ECT2,inactive: 0.04

row,Sequence,median seed-adjusted z-score
1,GGACUUUGAUCGCUAUCAATT against PLCG1,inactive: -0.336
2,GCUUGUCACUCUUGCCUAUTT against CNGB3,inactive: 0.226
3,GCAGACAACAUAUGUUUUATT against SLC15A4,inactive: -0.29
4,CCACUGUACUGAGUGACCATT against HECTD3,inactive: 0
5,GCAUAUUGCUAGGAGGGUATT against GLDC,inactive: 0
6,AGCUCUUUUUGGGACUAUUTT against GK,inactive: -0.474
7,CGAUAGAAGAGGUAUAGGATT against ZNF415,inactive: 0.222
8,CGCUCUACGGUAACGUGUUTT against POU3F1,inactive: 0.279
9,GUCAUUACGUCAUCCUCAATT against ZNF721,inactive: 0.404
10,CUACCAGUGUUACUUCCAATT against BTN2A3,inactive: -0.483
11,CGACUGGAUUAAGCAGUAUTT against ATP6V1C1,inactive: 0.0821
12,GAGUUUAACCAGGUGAUAATT against DDX39,inactive: -0.342
13,GCAUAUCUUUUGCAACGAATT against SOS1,inactive: 0
14,GGUUAUCAUGGGAUAUUCATT against SRPK1,inactive: 0.37
15,GCUCUGCUGUGUUGCACCATT against MRGPRE,inactive: -0.65
16,GGACAGCAGCGUGAACUAUTT against ALX1,inactive: -0.556
17,CUCCAUCGCUAGAUCGAAATT against INPP4A,inactive: 0.379
18,GAAGGACAUGUACAAGAAATT against ITPKA,inactive: -0.136
19,CGAUCAAGGAGGCAGAUUATT against PHF14,inactive: 0.354
20,UAACGACUGCUUUAACUGUTT against FHL2,inactive: 0.475
21,GCUUCUCUGCAGGAAAUUATT against PIGL,inactive: 0.827
22,GCAGCUUAAUGUCAGUCCATT against TRMT5,inactive: 0

row,Sequence,median seed-adjusted z-score
1,CAGACUAUGAUGAAACUCATT against BMX,inactive: -0.00712
2,GUAGAGCUGUUGCAAGCAATT against DCTN2,inactive: 0.339
3,GGCCCUUAUUCGUCCUGAUTT against LEPROT,inactive: -0.17
4,CGCUGCAGAUUCACCAAGATT against ASL,inactive: 0.0344
5,CCGACAGCUUAGUCAAAGATT against BZW2,inactive: 0.0649
6,GGACAAUUCAGGACCUUUUTT against MPP6,inactive: -0.625
7,GCUCUAAACUUGGGACUAATT against PFKM,inactive: -0.362
8,GACCUUAAGAUACCAGUAUTT against DMAP1,inactive: 0.342
9,GCUCUUAAAAUUAAGUACATT against T,inactive: -0.018
10,CGGUAUCACCGUUGAUGAATT against ARID1A,active: -1.14
11,GAGACAGUGUUGAUCUGCATT against BEST3,inactive: -0.211
12,CUCUCUCUCGGAAUCUGAATT against POLR2L,active: -1.19
13,ACUACUACCAAUAAUCAAATT against NEUROD2,inactive: -0.103
14,CUAGCAUCAUAUCAAGAUATT against MTERF,inactive: 0.432
15,CACUCACAAACAUAACAAUTT against FKBP14,inactive: -0.455
16,GGACCGCUACUAUAGCUCATT against IL12B,inactive: 0.409
17,GGGUAGAAAUUGAUCCUGATT against GK5,inactive: -0.118
18,GGACCACAAGGGAAUACAATT against KHDRBS1,inactive: 0.0916
19,CCAACUCCAGCGAAAACAUTT against SSBP4,inactive: 0.254
20,GCAAGUACAAAGUAGAUUUTT against MRPL39,inactive: 0.355
21,GGGAGGAUUUGAUCGGACATT against SPEN,active: -1.69
22,CAAACAUCCAUAUCUAUGATT against NMT1,inactive: 0.18

# A different layout for some results above:
row	Sequence	median seed-adjusted z-score
8	CGCUCUACGGUAACGUGUUTT against POU3F1	inactive: 0.279
9	GUCAUUACGUCAUCCUCAATT against ZNF721	inactive: 0.404
10	CUACCAGUGUUACUUCCAATT against BTN2A3	inactive: -0.483
11	CGACUGGAUUAAGCAGUAUTT against ATP6V1C1	inactive: 0.0821
12	GAGUUUAACCAGGUGAUAATT against DDX39	inactive: -0.342
13	GCAUAUCUUUUGCAACGAATT against SOS1	inactive: 0
14	GGUUAUCAUGGGAUAUUCATT against SRPK1	inactive: 0.37
15	GCUCUGCUGUGUUGCACCATT against MRGPRE	inactive: -0.65
16	GGACAGCAGCGUGAACUAUTT against ALX1	inactive: -0.556
17	CUCCAUCGCUAGAUCGAAATT against INPP4A	inactive: 0.379
18	GAAGGACAUGUACAAGAAATT against ITPKA	inactive: -0.136
19	CGAUCAAGGAGGCAGAUUATT against PHF14	inactive: 0.354
20	UAACGACUGCUUUAACUGUTT against FHL2	inactive: 0.475
21	GCUUCUCUGCAGGAAAUUATT against PIGL	inactive: 0.827
22	GCAGCUUAAUGUCAGUCCATT against TRMT5	inactive: 0
1	CAGACUAUGAUGAAACUCATT against BMX	inactive: -0.00712
2	GUAGAGCUGUUGCAAGCAATT against DCTN2	inactive: 0.339
3	GGCCCUUAUUCGUCCUGAUTT against LEPROT	inactive: -0.17
4	CGCUGCAGAUUCACCAAGATT against ASL	inactive: 0.0344
5	CCGACAGCUUAGUCAAAGATT against BZW2	inactive: 0.0649
6	GGACAAUUCAGGACCUUUUTT against MPP6	inactive: -0.625
7	GCUCUAAACUUGGGACUAATT against PFKM	inactive: -0.362
8	GACCUUAAGAUACCAGUAUTT against DMAP1	inactive: 0.342
9	GCUCUUAAAAUUAAGUACATT against T	inactive: -0.018
10	CGGUAUCACCGUUGAUGAATT against ARID1A	active: -1.14
11	GAGACAGUGUUGAUCUGCATT against BEST3	inactive: -0.211
12	CUCUCUCUCGGAAUCUGAATT against POLR2L	active: -1.19
13	ACUACUACCAAUAAUCAAATT against NEUROD2	inactive: -0.103
14	CUAGCAUCAUAUCAAGAUATT against MTERF	inactive: 0.432
15	CACUCACAAACAUAACAAUTT against FKBP14	inactive: -0.455
16	GGACCGCUACUAUAGCUCATT against IL12B	inactive: 0.409
17	GGGUAGAAAUUGAUCCUGATT against GK5	inactive: -0.118
18	GGACCACAAGGGAAUACAATT against KHDRBS1	inactive: 0.0916
19	CCAACUCCAGCGAAAACAUTT against SSBP4	inactive: 0.254

# Continuation:

row,Sequence,median seed-adjusted z-score
1,GAGUCCCAUUUACAGCUAUTT against PFTK2,active: -1.16
2,CCCUGAAUUUGGUCAAGCATT against AGTPBP1,inactive: -0.201
3,CAGAUAACCCUGAAUGACATT against NEDD4L,inactive: 0.212
4,GAAUCAUCCAAAGUUGUGATT against ZNF583,inactive: -0.225
5,GACCAGUCGUUUCUAGAAATT against ADCK2,inactive: 0.0823
6,AGAUACCUGUCAUCGGUCATT against MRGPRX3,inactive: -0.175
7,CGGUCGCUGAAAACCCAAUTT against PCDHGB1,inactive: -0.482
8,GCAGCUCACAUAACUGGGATT against TNFSF10,inactive: 0
9,CAACCUUGCGGCAUGCAAATT against PRSSL1,inactive: -0.221
10,GACUGGUUGUUGCUCAGAUTT against LPGAT1,inactive: 0.625
11,CAGUGGAUUCGAGAAGUGATT against ERBB3,inactive: -0.561
12,GCCUACAUGUUCAACGAGATT against TRPC7,inactive: 0.146
13,GUGUCCAACAGAUACGGAATT against DSCAM,inactive: -0.527
14,GAACGAGUACAGCAAUAUATT against HNRPDL,inactive: -0.68
15,GGCUUUAAGGUGUACUUCATT against SCN4A,inactive: -0.681
16,UAAUCAAUCUGGAAUGUUUTT against BMP8B,inactive: 0
17,CAGCCCAAGUGUCGCCUUATT against PAX9,active: -1.16
18,GGCAUGAUCUACAAAUACATT against SLC12A4,inactive: -0.0667
19,CAUACAGCAUUGAACUUCATT against MANBA,inactive: 0.473
20,GCAAAAUCCUCGUUUCUGUTT against MRGPRX4,inactive: -0.113
